# Assay results taken from PubChem BioAssay AID624246 (National Center for Advancing Translational Sciences (NCATS), 2012).
# Chains of the proteins cited; added tags and fusions are not shown.
# UniProt P11308, whole entry, looked up: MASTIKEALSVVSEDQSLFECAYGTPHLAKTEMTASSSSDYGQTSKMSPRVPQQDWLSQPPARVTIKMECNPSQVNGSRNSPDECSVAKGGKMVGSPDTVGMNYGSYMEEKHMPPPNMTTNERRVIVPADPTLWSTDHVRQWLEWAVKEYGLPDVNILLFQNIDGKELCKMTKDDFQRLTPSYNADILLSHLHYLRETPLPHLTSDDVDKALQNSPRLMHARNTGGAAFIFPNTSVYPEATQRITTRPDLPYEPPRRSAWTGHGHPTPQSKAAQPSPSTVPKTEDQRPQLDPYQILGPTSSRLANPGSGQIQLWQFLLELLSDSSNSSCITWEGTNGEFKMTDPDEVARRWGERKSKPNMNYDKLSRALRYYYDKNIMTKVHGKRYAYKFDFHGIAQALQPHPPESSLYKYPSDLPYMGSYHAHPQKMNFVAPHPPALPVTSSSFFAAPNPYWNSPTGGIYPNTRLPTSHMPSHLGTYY
# In all, about 370,000 compounds went through this assay and about 100 (0.027%) were called active. This list was built around the results that the source calls inconclusive (neither active nor inactive); the mix of calls is not that of the screen. Calls come from the whole dose curve; as a rule, active = well fitted inhibition curve with a large enough effect in the polarisation, with a control signal flat; inconclusive = small, poorly fitted or top-dose-only effect, or effect the other way, or a change in a side signal; inactive = no such curve, though single readings can be large or run the other way; the % refers to the polarisation. Where the call is inconclusive, the potency comes from a doubtful curve fit. A note “side channel” means that the fit belongs to a control or component signal, not to the main read-out.
# Target: Transcriptional regulator ERG (Homo sapiens) (UniProt P11308)
# Assay: qHTS for Small Molecule Inhibitors of the ERG Ets/DNA interaction
# Settings: fluorescence polarization, His-ERG Ets domain / labelled DNA; series mostly up to 76.9 µM
# Summary of the method: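 His-tagged ERG Ets domain (1 uM in the protein solution; 300mM KCl, 50mM Tris-HCl, 1mM EDTA, 1mM DTT, pH 7.5) received compound, then a probe mix of 5 nM fluorescein-DNA and 100nM Texas-615-DNA. Fluorescence polarization was read for both dyes.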
# Potency is the fitted concentration of half-maximal effect.
row,Structure (SMILES),Potency
1,COc1ccc(Br)cc1CNC(=O)c1nn(-c2ccc(C)cc2)c(=O)c2c1c1ccccc1n2C,"inconclusive: 50.1 µM [quencher, side channel, single point]"
2,Cc1nn(CCOc2ccccc2)c(=O)n1-c1ccc(F)cc1,inactive
3,Cc1nc(CC(=O)Nc2nc(C(C)(C)C)cs2)cs1,"inconclusive: 50.1 µM [quencher, side channel, single point]"
4,CCNc1ccccc1CP(=O)(c1ccccc1)c1ccccc1O (configuration not stated),"inconclusive: 35.5 µM [inhibitor, partial curve, poor fit]"
5,C=C(C)C(=O)Nc1cccc(C2=NOC3(C2)C[C@H](C(N)=O)N(C(=O)COc2ccc(Cl)cc2)C3)c1 (some centres not stated),inactive
6,COc1ccccc1C1NC=C([N+](=O)[O-])C=C1[N+](=O)[O-] (configuration not stated),"inconclusive: 14.1 µM [fluorescent, side channel, partial curve, poor fit]"
7,O=C(CCCn1c(=O)c2sccc2n(Cc2ccc(F)cc2)c1=O)NCc1ccco1,"inconclusive: 4.47 µM [fluorescent, side channel, full curve, poor fit]"
8,CC(=O)Nc1nc(C)c(-c2csc(Nc3ccc(O)cc3)n2)s1,"inconclusive: 17.8 µM [quencher, side channel, partial curve, poor fit]"
9,CCCSc1nc(-c2ccc(OC)cc2)cc(-c2ccccc2OC)c1C#N,inactive
10,Cc1ccc(C2CC(c3cccs3)=NN2C(=O)CCl)cc1 (configuration not stated),inactive
11,CC(C)(c1cc(Br)c(O)c(Br)c1)c1cc(Br)c(O)c(Br)c1,inactive
12,CN(C(=O)c1cccc(NC(=O)Cc2ccc(NC(=O)C3CCCN(S(=O)(=O)c4cccc([N+](=O)[O-])c4)C3)cc2)c1)C1CCCC1 (configuration not stated),inactive
13,NC(=O)COc1ccc(=O)n(-c2ccccc2)n1,inactive
14,COc1ccc(C(=O)CCN2CCCC(C)C2)cc1 (configuration not stated),"inconclusive: 35.5 µM [inhibitor, partial curve, poor fit]"
15,Cc1cccc(-c2oc3ccccc3c2-c2ccc3c(c2)OCO3)c1,"inconclusive: 12.6 µM [inhibitor, full curve, poor fit]"
16,Cc1ccc(S(=O)(=O)N2CCC[C@H]2C(=O)NC2CCCCC2)cc1,"inconclusive: 2.82 µM [inhibitor, partial curve, poor fit]"
17,O=C(NCCCc1ccccc1)C(=O)NCC1OCCN1S(=O)(=O)c1cc(F)ccc1F (configuration not stated),"inconclusive: 50.1 µM [inhibitor, single point]"
18,Cc1ccc(CCNC(=O)CN(c2cc(C)cc(C)c2)S(=O)(=O)c2c(C)noc2C)cc1,"inconclusive: 28.2 µM [quencher, side channel, single point]"
19,O=C(O)Cc1sc(-c2cccnc2)nc1-c1ccc(Br)cc1,inactive
20,CCOc1ccc(NC(=O)c2c(NCc3ccc(C)o3)sc3c2CCCCC3)cc1,inactive
21,CC(CCc1ccccc1)NC(=S)NC1CCCCC1 (configuration not stated),"inconclusive: 39.8 µM [inhibitor, partial curve, poor fit]"
22,CC1CC(C)(C)CC2(C1)NC(=O)N(CC(=O)OCc1ccc(Br)cc1)C2=O (configuration not stated),inactive
23,CCOC(=O)c1ccc(N2CCN(c3ccccc3F)CC2)c(NC(=O)Nc2cccc(OC)c2)c1,"inconclusive: 50.1 µM [inhibitor, single point]"

row,Structure (SMILES),Potency
1,CN(C)c1ccc(Nc2ccc([N+](=O)[O-])cn2)cc1,"inconclusive: 11.2 µM [inhibitor, single point]"
2,O=C1CCCC(O)=C1N=Nc1ccc(C(=O)O)cc1,active: 28.2 µM
3,Cc1ccc(NC(=O)/C(C#N)=C(\N)C(Cl)(Cl)Cl)nc1,"inconclusive: 5.01 µM [inhibitor, partial curve, poor fit]"
4,O=c1[nH][nH]c2c(N=Cc3ccccc3O)ccc(F)c12,"inconclusive: 50.1 µM [inhibitor, single point]"
5,CC(C)=CCOc1ccc2ccc(=O)oc2c1,"inconclusive: 1.58 µM [inhibitor, full curve, poor fit]"
6,Nc1ccc2nc(-c3ccc(N)c(Cl)c3)[nH]c2c1,"inconclusive: 25.1 µM [quencher, side channel, partial curve]"
7,CC(C)c1ccc(C2CC(=O)N3CN(C4CCCCC4)CSC3=C2C#N)cc1 (configuration not stated),"inconclusive: 7.08 µM [quencher, side channel, full curve]"
8,CCCn1c(SCC(=O)Nc2cccc(C(=O)OCC)c2)nnc1-c1ccoc1C,"inconclusive: 35.5 µM [inhibitor, partial curve, poor fit]"
9,Cc1ccc(C(=O)OCC(=O)Nc2ccc3c(c2)OCO3)cc1S(=O)(=O)N1CCOCC1,inactive
10,O=S(=O)(c1ccccc1)c1nc(-c2ccc(F)cc2)oc1NCc1ccccc1,inactive
11,Cc1cc(S(=O)(=O)Nc2c(C)nn(C)c2C)c(Cl)cc1Cl,"inconclusive: 11.2 µM [quencher, side channel, single point]"
12,CC(C)(C)C1CCC(OCC(O)CN2CCCC2)CC1 (configuration not stated),inactive
13,Nc1ccc2nc3c(=O)n(C4CCCCC4)c(=O)[nH]c3nc2c1,"inconclusive: 50.1 µM [inhibitor, single point]"
14,C[C@H](O)C(=O)C1=Nc2c(nc(N)[nH]c2=O)NC1,"inconclusive: 35.5 µM [inhibitor, partial curve, poor fit]"
15,Cc1ccc(-n2c(CCC(=O)O)ccc2-c2cccs2)cc1Cl,"inconclusive: 50.1 µM [inhibitor, single point]"
16,COc1ccc2ccccc2c1C(O)c1nccn1C (configuration not stated),"inconclusive: 50.1 µM [fluorescent, side channel, single point]"
17,O=C(O)c1ccccc1Nc1cccc(OCc2ccc3ccccc3n2)c1,"inconclusive: 28.2 µM [inhibitor, partial curve, poor fit]"
18,N#Cc1c(C(F)(F)F)cc(-c2cccs2)nc1SCC(=O)Nc1cccc(Br)c1,"inconclusive: 31.6 µM [inhibitor, single point]"
19,O=C(NC(=S)NCC1CCCO1)c1ccccc1[N+](=O)[O-] (configuration not stated),inactive
20,CCOc1ccc(NS(=O)(=O)c2ccc(C(=O)N3CCN(c4ncccn4)CC3)cc2)cc1,inactive
21,COc1cc(SC)ccc1C(=O)N1CCn2c3c(c4cc(C)ccc42)CCCC31 (configuration not stated),"inconclusive: 7.94 µM [quencher, side channel, full curve, poor fit]"
22,c1ccc2oc(-c3ccn[nH]3)cc2c1,"inconclusive: 28.2 µM [inhibitor, partial curve, poor fit]"
23,N#C/C(=C\c1cn[nH]c1-c1ccc(Cl)cc1)C(=O)NCc1ccccc1,"inconclusive: 31.6 µM [inhibitor, single point]"

# Looked up one by one from the list above (3):
row,Structure (SMILES),Potency
1,CN(C)c1ccc(Nc2ccc([N+](=O)[O-])cn2)cc1,"inconclusive: 11.2 µM [inhibitor, single point]"
11,CC(C)(c1cc(Br)c(O)c(Br)c1)c1cc(Br)c(O)c(Br)c1,inactive
15,Cc1cccc(-c2oc3ccccc3c2-c2ccc3c(c2)OCO3)c1,"inconclusive: 12.6 µM [inhibitor, full curve, poor fit]"

# (more compounds)

row,Structure (SMILES),Potency
1,Cc1ccc(-c2cc(C(=O)N/N=C/c3c[nH]c4ccccc34)[nH]n2)cc1,"inconclusive: 5.62 µM [quencher, side channel, partial curve, poor fit]"
2,O=C(Nc1nc(-c2ccc(S(=O)(=O)N3CCCCCC3)cc2)cs1)c1ccccc1,inactive
3,Cc1ccc(SCC(=O)Nc2ccc(N3CCN(C)CC3)c(F)c2)c(C)c1,inactive
4,O=C(N/N=C/c1ccc(-c2ccccc2[N+](=O)[O-])o1)[C@H]1C[C@@H]1c1ccccc1,"inconclusive: 6.31 µM [inhibitor, single point]"
5,Cc1cc2c(nn1)CCc1nonc1-2,inactive
6,O=C(CSc1nc2ccc(Nc3nc(N4CCOCC4)nc(N4CCOCC4)n3)cc2s1)Nc1ccccc1Cl,"inconclusive: 31.6 µM [inhibitor, partial curve, poor fit]"
7,Cn1cc(-c2ccccc2C(=O)O)c(=O)c2ccccc21,"inconclusive: 50.1 µM [inhibitor, single point]"
8,COc1cccc(NC(=S)NCCN2CCOCC2)c1,"inconclusive: 35.5 µM [quencher, side channel, partial curve, poor fit]"
9,OC(c1ccccc1)C(CN1CCOCC1)c1ccccc1 (configuration not stated),"inconclusive: 31.6 µM [inhibitor, partial curve]"
10,CCOc1ccccc1C(=O)Nc1nnc(COC)s1,inactive
11,Cn1cccc1C(=O)NC(=O)COC(=O)CCNS(=O)(=O)c1ccc(Cl)cc1,"inconclusive: 44.7 µM [inhibitor, single point]"
12,COc1ccc(CS(=O)c2nc(C)cc(C)c2S(C)(=O)=O)cc1 (configuration not stated),"inconclusive: 3.55 µM [inhibitor, single point]"
13,CCOC(=O)N/N=C/c1ccc(F)cc1F,inactive
14,CCOC(=O)c1ccc(NC(=S)N2CCSC2c2ccc(OC)cc2)cc1 (configuration not stated),"inconclusive: 1.58 µM [inhibitor, full curve, poor fit]"
15,COc1ccccc1Nc1c2c(nc3ccc(NC(=O)/C=C/c4cc(OC)c(OC)c(OC)c4)cc13)CCCC2,"inconclusive: 25.1 µM [quencher, side channel, single point]"
16,Cc1ccc2nc(SCC(=O)NCc3ccc(F)cc3)[nH]c2c1,inactive
17,O=C(Nc1ccccc1N1CCCCC1)c1ccc2nccnc2c1,"inconclusive: 100 µM [inhibitor, single point]"
18,COc1ccc(-c2c/c(=N\c3nc(-c4ccccc4)c(C)s3)c3ccccc3o2)cc1O,"inconclusive: 79.4 µM [inhibitor, single point]"
19,CC[n+]1c(C)sc2cc(C)ccc21,inactive
20,COc1ccccc1C1NC(=O)CCC1[N+](=O)[O-] (configuration not stated),"inconclusive: 35.5 µM [inhibitor, single point]"
21,O=C1CC(=O)N(Cc2ccco2)C(=O)N1,"inconclusive: 31.6 µM [fluorescent, side channel, partial curve, poor fit]"
